Reference: publication PMC4345279
Like-named read-outs stand apart in the source and are kept apart here. Results are given in words; binding and its absence hold for the method and conditions named. Binding seen in cells or lysates may run through a third protein. Here binding means that the protein was enriched with, or labelled near, the bait; the list need not be complete.

Protein sequences, listed by entry. Tags and fused reporters are not part of them. Lines headed by an entry give the natural chain unless they say otherwise; changes in a name come on top. Chains listed by the source or under a name are the forms on record and can include a tag or linker.
UniProt Q9VCG6: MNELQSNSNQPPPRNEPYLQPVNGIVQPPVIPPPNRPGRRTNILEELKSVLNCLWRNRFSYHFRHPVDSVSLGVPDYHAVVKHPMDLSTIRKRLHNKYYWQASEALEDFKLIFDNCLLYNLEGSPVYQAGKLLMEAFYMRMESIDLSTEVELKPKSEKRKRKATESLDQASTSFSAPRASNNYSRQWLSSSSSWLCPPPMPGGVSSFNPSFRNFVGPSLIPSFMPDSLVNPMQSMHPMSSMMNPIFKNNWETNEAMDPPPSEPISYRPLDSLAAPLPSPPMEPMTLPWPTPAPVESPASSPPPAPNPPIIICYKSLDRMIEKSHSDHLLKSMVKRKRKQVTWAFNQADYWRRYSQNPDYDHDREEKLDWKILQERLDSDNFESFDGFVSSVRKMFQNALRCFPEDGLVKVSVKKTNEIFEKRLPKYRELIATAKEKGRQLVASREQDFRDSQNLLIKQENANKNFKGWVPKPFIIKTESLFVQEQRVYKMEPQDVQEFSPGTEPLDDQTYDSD
UniProt O97125: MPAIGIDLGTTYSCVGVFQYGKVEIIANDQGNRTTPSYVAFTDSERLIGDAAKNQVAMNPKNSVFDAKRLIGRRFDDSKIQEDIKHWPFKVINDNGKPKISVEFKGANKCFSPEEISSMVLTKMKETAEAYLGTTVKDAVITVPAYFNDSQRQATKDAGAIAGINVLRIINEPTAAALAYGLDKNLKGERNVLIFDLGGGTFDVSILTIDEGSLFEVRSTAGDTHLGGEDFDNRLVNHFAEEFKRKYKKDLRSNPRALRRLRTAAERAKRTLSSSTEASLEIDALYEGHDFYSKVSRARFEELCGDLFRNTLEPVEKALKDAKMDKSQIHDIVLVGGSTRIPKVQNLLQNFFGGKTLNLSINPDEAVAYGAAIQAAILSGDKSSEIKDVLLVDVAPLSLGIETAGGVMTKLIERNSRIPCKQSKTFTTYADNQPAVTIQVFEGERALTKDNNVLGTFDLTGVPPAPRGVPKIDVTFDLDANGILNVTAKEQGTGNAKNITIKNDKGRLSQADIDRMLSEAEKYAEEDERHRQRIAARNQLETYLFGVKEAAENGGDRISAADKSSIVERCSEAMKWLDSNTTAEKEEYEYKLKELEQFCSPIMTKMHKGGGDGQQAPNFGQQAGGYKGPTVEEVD
myosin heavy chain (P05661, form named): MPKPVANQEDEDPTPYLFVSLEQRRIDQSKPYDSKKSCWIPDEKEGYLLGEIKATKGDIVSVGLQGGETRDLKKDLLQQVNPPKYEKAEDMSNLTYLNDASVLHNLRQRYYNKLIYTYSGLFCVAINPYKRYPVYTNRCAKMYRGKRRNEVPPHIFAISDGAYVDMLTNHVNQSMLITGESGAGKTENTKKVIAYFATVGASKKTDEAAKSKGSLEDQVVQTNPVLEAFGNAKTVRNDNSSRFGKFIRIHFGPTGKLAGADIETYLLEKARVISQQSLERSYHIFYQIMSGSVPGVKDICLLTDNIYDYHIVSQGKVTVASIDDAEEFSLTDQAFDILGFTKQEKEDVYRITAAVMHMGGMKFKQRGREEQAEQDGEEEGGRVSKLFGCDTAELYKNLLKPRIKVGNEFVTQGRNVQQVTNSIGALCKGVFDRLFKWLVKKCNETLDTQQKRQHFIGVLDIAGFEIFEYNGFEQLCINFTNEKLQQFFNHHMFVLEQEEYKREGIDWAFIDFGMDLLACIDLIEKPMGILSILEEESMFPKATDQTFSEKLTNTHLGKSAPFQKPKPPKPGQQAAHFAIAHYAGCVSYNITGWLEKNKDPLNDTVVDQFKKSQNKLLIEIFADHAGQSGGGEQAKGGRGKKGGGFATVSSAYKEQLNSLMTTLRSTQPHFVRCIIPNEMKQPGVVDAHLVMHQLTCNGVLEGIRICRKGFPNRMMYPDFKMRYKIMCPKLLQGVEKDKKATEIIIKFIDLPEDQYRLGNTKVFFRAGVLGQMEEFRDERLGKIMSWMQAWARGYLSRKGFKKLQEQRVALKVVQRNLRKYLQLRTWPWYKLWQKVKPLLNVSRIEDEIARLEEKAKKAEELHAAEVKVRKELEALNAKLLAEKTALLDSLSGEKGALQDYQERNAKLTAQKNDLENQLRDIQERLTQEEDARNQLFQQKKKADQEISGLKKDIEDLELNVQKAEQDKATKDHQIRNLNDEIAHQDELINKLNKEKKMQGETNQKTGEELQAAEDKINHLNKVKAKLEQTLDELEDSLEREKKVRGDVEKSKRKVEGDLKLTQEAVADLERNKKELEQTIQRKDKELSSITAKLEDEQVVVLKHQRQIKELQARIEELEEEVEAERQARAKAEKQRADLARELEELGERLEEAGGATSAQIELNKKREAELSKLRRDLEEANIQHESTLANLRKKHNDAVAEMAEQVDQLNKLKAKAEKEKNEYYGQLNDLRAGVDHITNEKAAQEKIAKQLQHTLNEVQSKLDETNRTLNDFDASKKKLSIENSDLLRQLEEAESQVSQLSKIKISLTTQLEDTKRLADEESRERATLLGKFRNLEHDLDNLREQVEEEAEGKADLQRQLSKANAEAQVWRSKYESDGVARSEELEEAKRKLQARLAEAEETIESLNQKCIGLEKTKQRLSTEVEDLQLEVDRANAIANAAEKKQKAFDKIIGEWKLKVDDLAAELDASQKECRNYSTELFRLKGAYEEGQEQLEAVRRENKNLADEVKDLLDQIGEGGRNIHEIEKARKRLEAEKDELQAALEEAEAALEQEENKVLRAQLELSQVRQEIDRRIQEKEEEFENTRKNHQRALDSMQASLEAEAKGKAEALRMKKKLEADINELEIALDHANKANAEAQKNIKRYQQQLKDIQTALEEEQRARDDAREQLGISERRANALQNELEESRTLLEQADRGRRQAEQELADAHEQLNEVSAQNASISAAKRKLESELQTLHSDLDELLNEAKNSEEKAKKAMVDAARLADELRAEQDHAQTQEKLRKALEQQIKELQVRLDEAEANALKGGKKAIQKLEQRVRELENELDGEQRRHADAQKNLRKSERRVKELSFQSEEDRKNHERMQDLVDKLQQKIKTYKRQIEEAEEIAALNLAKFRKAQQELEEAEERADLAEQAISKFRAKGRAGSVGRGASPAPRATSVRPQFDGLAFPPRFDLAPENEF
UniProt P21187: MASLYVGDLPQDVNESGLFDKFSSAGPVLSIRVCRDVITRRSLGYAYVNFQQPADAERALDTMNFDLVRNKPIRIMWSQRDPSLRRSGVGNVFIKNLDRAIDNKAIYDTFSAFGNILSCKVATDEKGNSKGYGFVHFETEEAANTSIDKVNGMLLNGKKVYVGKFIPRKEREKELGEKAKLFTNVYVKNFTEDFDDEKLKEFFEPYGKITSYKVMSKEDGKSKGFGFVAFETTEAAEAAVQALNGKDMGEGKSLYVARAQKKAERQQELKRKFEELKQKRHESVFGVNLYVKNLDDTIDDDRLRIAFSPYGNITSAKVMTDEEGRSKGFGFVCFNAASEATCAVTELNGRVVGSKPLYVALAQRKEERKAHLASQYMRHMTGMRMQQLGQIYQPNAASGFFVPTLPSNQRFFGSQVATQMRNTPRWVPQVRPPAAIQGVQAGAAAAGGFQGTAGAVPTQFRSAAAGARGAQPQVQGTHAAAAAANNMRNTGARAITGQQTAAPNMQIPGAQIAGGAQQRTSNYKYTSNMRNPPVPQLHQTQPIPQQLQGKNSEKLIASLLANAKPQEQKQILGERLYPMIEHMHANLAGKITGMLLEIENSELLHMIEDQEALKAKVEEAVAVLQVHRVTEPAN
zipper (Q99323, form named): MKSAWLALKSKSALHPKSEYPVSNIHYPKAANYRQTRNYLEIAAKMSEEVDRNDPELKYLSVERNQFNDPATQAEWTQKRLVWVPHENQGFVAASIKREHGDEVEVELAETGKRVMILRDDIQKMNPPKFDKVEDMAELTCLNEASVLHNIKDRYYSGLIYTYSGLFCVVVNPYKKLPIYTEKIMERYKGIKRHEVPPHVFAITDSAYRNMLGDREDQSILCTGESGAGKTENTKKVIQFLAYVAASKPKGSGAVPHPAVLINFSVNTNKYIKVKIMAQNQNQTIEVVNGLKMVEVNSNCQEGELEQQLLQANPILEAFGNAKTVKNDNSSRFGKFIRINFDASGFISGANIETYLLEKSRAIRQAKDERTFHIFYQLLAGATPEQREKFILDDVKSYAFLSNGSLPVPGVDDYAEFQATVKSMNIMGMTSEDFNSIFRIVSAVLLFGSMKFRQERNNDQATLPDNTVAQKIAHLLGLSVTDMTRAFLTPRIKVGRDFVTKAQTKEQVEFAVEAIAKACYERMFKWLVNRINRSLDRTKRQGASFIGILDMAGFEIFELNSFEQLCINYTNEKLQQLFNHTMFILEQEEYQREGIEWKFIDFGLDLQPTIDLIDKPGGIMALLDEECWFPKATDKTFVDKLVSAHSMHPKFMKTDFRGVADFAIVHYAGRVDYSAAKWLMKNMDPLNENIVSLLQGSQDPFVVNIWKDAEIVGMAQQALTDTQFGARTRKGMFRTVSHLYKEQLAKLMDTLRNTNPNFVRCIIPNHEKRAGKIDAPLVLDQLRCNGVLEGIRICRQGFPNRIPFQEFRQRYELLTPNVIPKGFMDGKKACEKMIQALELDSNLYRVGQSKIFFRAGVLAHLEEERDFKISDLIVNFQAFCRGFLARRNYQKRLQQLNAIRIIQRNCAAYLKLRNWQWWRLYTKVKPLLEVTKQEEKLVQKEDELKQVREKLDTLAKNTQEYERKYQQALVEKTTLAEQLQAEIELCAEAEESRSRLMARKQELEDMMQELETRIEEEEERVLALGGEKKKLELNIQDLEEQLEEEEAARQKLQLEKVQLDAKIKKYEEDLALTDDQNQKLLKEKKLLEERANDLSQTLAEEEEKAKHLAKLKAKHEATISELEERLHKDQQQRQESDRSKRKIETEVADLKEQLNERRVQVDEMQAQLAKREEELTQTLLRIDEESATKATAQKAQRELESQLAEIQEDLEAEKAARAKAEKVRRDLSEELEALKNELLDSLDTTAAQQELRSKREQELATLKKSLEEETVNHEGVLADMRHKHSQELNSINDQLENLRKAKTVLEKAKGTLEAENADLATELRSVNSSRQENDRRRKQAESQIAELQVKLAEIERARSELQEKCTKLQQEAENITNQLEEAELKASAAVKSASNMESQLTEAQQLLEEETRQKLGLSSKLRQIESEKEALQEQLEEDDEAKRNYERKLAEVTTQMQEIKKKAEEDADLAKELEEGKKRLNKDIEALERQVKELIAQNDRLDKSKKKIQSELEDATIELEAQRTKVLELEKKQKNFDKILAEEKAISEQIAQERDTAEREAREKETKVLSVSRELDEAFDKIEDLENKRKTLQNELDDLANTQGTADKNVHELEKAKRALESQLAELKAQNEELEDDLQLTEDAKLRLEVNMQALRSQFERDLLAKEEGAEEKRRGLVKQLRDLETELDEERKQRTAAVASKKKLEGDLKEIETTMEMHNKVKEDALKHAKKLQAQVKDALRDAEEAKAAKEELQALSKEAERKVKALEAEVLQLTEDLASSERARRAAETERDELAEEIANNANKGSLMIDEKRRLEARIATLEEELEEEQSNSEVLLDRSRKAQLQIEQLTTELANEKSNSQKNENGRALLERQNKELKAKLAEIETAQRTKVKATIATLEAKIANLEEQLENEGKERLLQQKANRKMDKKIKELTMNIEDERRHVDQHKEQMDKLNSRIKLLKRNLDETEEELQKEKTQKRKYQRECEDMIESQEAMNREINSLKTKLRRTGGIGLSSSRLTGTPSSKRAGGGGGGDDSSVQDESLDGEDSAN

Columns and labels:
[1] = target: tBRD-1 (testis-specifically expressed bromodomain-containing protein-1), endogenous (Drosophila (endogenous in testes)) (UniProt Q9VCG6); assay: affinity purification with mass spectrometry; anti-tBRD-1 antibody cross-linked to Protein A Dynabeads added to wild-type crude testicular lysates (control rabbit IgG), 6 h at 4°C, washed with 1×TNE and BC100, eluted with 0.1 M glycin-HCl pH 2.0; separated by electrophoresis, silver stained, in-gel digestion, LC-MS
[2] = target: tBRD-1 (testis-specifically expressed bromodomain-containing protein-1), endogenous (Drosophila (endogenous in testes)) (UniProt Q9VCG6); assay: as above; remark: listed apart in the source

## heat shock protein 68 (from UniProt O97125 1-635)
[1]
  binding: binds

## myosin heavy chain (from UniProt P05661 1-1962)
[1]
  binding: binds

## poly(A) binding protein (from UniProt P21187 1-634)
[1]
  binding: binds

## zipper (from UniProt Q99323 1-2056)
[1]
  binding: binds

B1: ribonuclear protein at 97D (protein, UniProt Q02926 1-471)
chain: MVKDEPLSDESADVIVLADREEDDICELEHLRKLFIGGLAPYTTEENLKLFYGQWGKVVDVVVMRDAATKRSRGFGFITYTKSLMVDRAQENRPHIIDGKTVEAKRALPRPERESRETNISVKKLFVGGLKDNHDEECLREYFLQFGNVVSVKLLTDKTTGKRRGFAFVEFDDYDAVDKAILKKQHAIKYVHVDVKKSIYNLDKKEKQQPGGLANAIKPSLNQQQQQQGGGQQPPNGNMQAPSFRPPVPPQQAMGPYQQQPPPAPMSAPPPNFNYWGPPPPAMPPYYQQPPPQQMNGWGPYPPPQQNGWNAPPPPPPGAQQWHANQWGCPPPVQQVPPVGAVPPPMGHNGPPPTAPGNWNMPPPVPGAAPPSHQQQSSQQPTPQPNFGTGYQQNYGGGPSKHNNMNANRMNPYSAGPPNSYHTPQPPAYTGYNAGPLPPNGSVPPPTGAKAVGVSNGSVATGGSANSKYRR
[2]
  binding: binds

B2: paramyosin (protein, UniProt P35415 1-879)
chain: MSSSQAVRSSKYSYRATSTGPGTADVNIEYIQDLSSLSRLEDKIRLLQDDLEVERELRQRIEREKADLSVQVIQMSERLEEAEGGAEHQFEANRKRDAELLKLRKLLEDVHLESEETTLLLKKKHNEIITDFQEQVEILTKNKARAEKDKAKFQTEVYELLSQIESYNKEKIVSEKHISKLEVSISELNVKIEELNRTVIDISSHRSRLSQENIELTKDVQDLKVQLDTVSFSKSQVISQLEDARRRLEDEDRRRSLLESSLHQVEIELDSVRNQLEEESEARIDLERQLVKANADATSWQNKWNSEVAARAEEVEEIRRKYQVRITELEEHIESLIVKVNNLEKMKTRLASEVEVLIIDLEKSNNSCRELTKSVNTLEKHNVELKSRLDETIILYETSQRDLKNKHADLVRTVHELDKVKDNNNQLTRENKKLGDDLHEAKGAINELNRRLHELELELRRLENERDELTAAYKEAEAGRKAEEQRGQRLAADFNQYRHDAERRLAEKDEEIEAIRKQTSIEIEQLNARVIEAETRLKTEVTRIKKKLQIQITELEMSLDVANKTNIDLQKVIKKQSLQLTELQAHYEDVQRQLQATLDQYAVAQRRLAGLNGELEEVRSHLDSANRAKRTVELQYEEAASRINELTTANVSLVSIKSKLEQELSVVASDYEEVSKELRISDERYQKVQVELKHVVEQVHEEQERIVKLETIKKSLEVEVKNLSIRLEEVELNAVAGSKRIISKLEARIRDLELELEEEKRRHAETIKILRKKERTVKEVLVQCEEDQKNLILLQDALDKSTAKINIYRRQLSEQEGVSQQTTTRVRRFQRELEAAEDRADTAESSLNIIRAKHRTFVTTSTVPGSQVYIQETTRTITE
[2]
  binding: binds
